The values that follow come from PubChem BioAssay AID2685 (National Center for Advancing Translational Sciences (NCATS), 2010).

The list shows a part of the results. Further columns of the screen follow, without active or inactive calls. The list favours compounds with an active or inconclusive main result. The note in brackets gives the kind of curve behind each potency; many fits are weak.

This experiment in a line: qHTS Assay for Lipid Storage Modulators in Drosophila S3 Cells.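 As to cell number change: cells counted by Cell Tracker Red CMTPX staining in the red channel.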 To be noted: BODIPY lipid droplet fluorescence, 18-24 h; for cell number change: measured here: cell count max response, cells fed with added oleic acid. An outline of the steps:
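Laser-scanning cytometry quantifies lipid droplet accumulation (500–530 nm total intensity; droplet/cell object ratio) in oleic acid-fed (400 uM added) Drosophila S3 cells treated with a concentration series. 20 uM Triacsin C defined 100% inhibition.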
On the technique in general: qHTS replaces the single test concentration by a dilution series.

[1] abbreviates: measured here: lipid fluorescence (Fed channel) AC50, cells fed with added oleic acid.
The mark [2] stands for this setting: measured here: cell number channel AC50, cells fed with added oleic acid.

The AC50 is the concentration at which the activity in the assay is half-maximal. In the case of `CC(NC(=O)c1ccccc1)c1nc2ccccc2n1Cc1ccccc1F` (centres undefined), the cell number change is -9.91%. Under setting [1], the AC50 was 23.1 µM [falling, single point].

In the case of `Cn1cc(C(=O)NCc2cccnc2)c(=O)c2cc(S(=O)(=O)N3CCCCCC3)ccc21`, the cell number change is -11.3%. Moreover, under setting [2], the AC50 was 6.51 µM [rising, partial curve, poor fit]. Besides, under setting [1], the AC50 is 6.51 µM [rising, partial curve, poor fit].

Turning to `CC(=O)c1ccc(NC(=S)NC(C)CCc2ccccc2)cc1` (centres undefined), the cell number change was -16.2%. The AC50 under setting [1] was 0.731 µM [falling, full curve].

Regarding `CCc1ncc(C(O)c2cccc(OC)c2OC)n1C` (centres undefined), the cell number change was -110%. The AC50 under setting [2] is 25.9 µM [falling, partial curve]. In addition, the AC50 under setting [1] is 5.8 µM [falling, partial curve].

Regarding `O=C(O)C1CCCNC1` (centres undefined), the AC50 runs as follows: under setting [2], 0.58 µM [rising, single point]; under setting [1], 0.58 µM [rising, single point].

For the molecule `COc1cc(CN2CCCCCC2)cc(OC)c1`, the cell number change amounted to 3.67%.

For the molecule `COC(=O)c1[nH]c2ccc(C)cc2c1NC(=O)CN1CCCC(C)(C)C1`, the cell number change was 196%. Under setting [2], the AC50 is 20.6 µM [rising, single point].

For `CO/N=C/C1CCN(c2ncc(C(F)(F)F)cc2Cl)C1=O` (centres undefined), the cell number change was -44.9%. Moreover, the AC50 under setting [2] was 14.6 µM [falling, single point].

With `COc1cccc(S(=O)(=O)N2CCN(c3ccccc3F)CC2)c1`, the cell number change is -15.1%. For the same molecule, the AC50 under setting [1] is 2.31 µM [rising, full curve].

With `On1c(-c2ccccc2)nc2ccccc21`, the cell number change was determined as 7.74%. Besides, under setting [1], the AC50 is 1.46 µM [falling, full curve, poor fit].

With `CCOc1ccc(C(=O)NCC(=O)OCC(=O)Nc2ccccc2OC)cc1`, the cell number change was 8.91%. In addition, the AC50 under setting [1] is 23.1 µM [falling, partial curve].

With `COP(=O)(OC)c1nc(-c2cccc3ccccc23)oc1NCCc1ccccc1`, the cell number change was -35.3%. Besides, under setting [1], the AC50 is 0.461 µM [rising, partial curve].

For `CN1CCN(c2nc3c(c(=O)n(C)c(=O)n3C)n2Cc2cccc3ccccc23)CC1`, the cell number change turned out to be 18.2%. Further, under setting [1], the AC50 is 0.58 µM [rising, single point].

`NC(=O)c1ccc(NC(=O)COC(=O)c2n[nH]c3ccccc23)cc1`: the cell number change was determined as 7.66%. Moreover, the AC50 under setting [1] was 7.31 µM [falling, partial curve].

Consider `COc1ccccc1C(=O)N1CCCC1(C#N)c1ccccc1` (centres undefined), for which the AC50 under setting [1] is 0.259 µM [falling, partial curve, poor fit].

In the case of `Cc1nc2ccn(Cc3ccccc3)c(=O)c2cc1C(=O)N1CCN(c2ccccc2)CC1`, the cell number change is 29.6%. Moreover, the AC50 under setting [1] was 20.6 µM [rising, single point].

As for `COc1ccccc1OCCNC(=O)C(c1ccccc1)c1ccccc1`, the cell number change worked out at 19.4%.

Consider `Cc1cc(Cl)ccc1OCC(=O)NCc1ccncc1`, for which the cell number change was -20.3%. Further, the AC50 under setting [1] was 29.1 µM [falling, single point].

In the case of `Cc1ccc(C2OCC3(CO)COC(c4ccc(C)cc4)N23)cc1` (centres undefined), the cell number change was -44.2%. In addition, the AC50 under setting [2] was 32.6 µM [falling, single point].

Regarding `CC1CCCC(NC(=O)CSc2ncccn2)C1C` (centres undefined), the cell number change came to 3.96%. The AC50 under setting [1] is 0.58 µM [falling, single point].

Turning to `C[C@@H]1NC(=O)N(c2ccc(F)cc2)C1=O`, the cell number change turned out to be 32.4%. For the same molecule, under setting [2], the AC50 was 1.46 µM [rising, full curve].

As for `CCCCN(Cc1ccco1)C(=O)c1cc2c(=O)[nH]c3ccc(C)cc3c2s1`, the cell number change is -32.5%. In addition, the AC50 under setting [2] was 2.06 µM [falling, single point]. Besides, the AC50 under setting [1] was 2.91 µM [falling, partial curve, poor fit].

`Cc1ccc(C)c(-n2nnnc2SCC(=O)NCC2CCCO2)c1` (centres undefined): the cell number change turned out to be 18.7%. Besides, under setting [1], the AC50 is 0.00517 µM [rising, full curve, poor fit].

`CN(C(=O)CCNC(=O)Cn1cnc2ccccc2c1=O)c1ccc(Br)cc1`: the cell number change worked out at 9.66%. Besides, under setting [1], the AC50 is 0.00517 µM [rising, full curve, poor fit].

Consider `Cc1nc2c(C)cccc2cc1C(=O)N/N=C/c1cccnc1`, for which the cell number change stood at 15.7%. Moreover, the half-maximal activity concentration (AC50) under setting [1] is 29.1 µM [rising, single point].

Turning to `CCOc1cc(/C=N/Nc2nn3cnnc3c3ccccc23)ccc1O`, the cell number change was -17.7%. Besides, the AC50 under setting [1] was 29.1 µM [falling, single point].

On to `CCOCCCNC(=O)C(NC(=O)CNC(=O)c1ccccc1)c1ccccc1` (centres undefined), for which the cell number change came to 13.8%. Besides, under setting [1], the AC50 was 29.1 µM [falling, partial curve].

For `COc1ccc(N(CC(=O)NCc2cccs2)S(=O)(=O)c2cccnc2)cc1`, the cell number change was determined as 44.8%. Moreover, the AC50 under setting [2] is 10.3 µM [rising, partial curve]. Moreover, under setting [1], the AC50 was 2.91 µM [rising, full curve].

For the molecule `CC(C)(C)N(Cc1ccccc1)C(=O)COc1cccnc1[N+](=O)[O-]`, the cell number change amounted to 16%. Besides, the AC50 under setting [1] was 4.61 µM [rising, partial curve].

As for `O=C(Nc1ccccc1Cc1ccccc1)c1ccc2c(c1)SC1=NS(=O)(=O)CCN12`, the cell number change is -31.3%. Moreover, under setting [2], the concentration at half-maximal activity (AC50) was 25.9 µM [falling, single point]. Besides, under setting [1], the AC50 is 7.31 µM [falling, partial curve, poor fit].

`COc1ccc(-c2nnc3ccc(SCC(=O)NCc4ccco4)nn23)cc1`: the cell number change is -10.4%. The AC50 under setting [1] was 1.16 µM [rising, partial curve].

`COc1ccc(S(=O)(=O)N2CCc3ccccc32)cc1NC(C)=O`: the cell number change was -2.94%. Moreover, the AC50 under setting [1] is 6.51 µM [falling, single point].

For `Cc1nn(C)c(C)c1NS(=O)(=O)c1ccc(N2CCCC2=O)cc1`, the cell number change was -35.1%. In addition, the AC50 under setting [2] is 29.1 µM [falling, single point]. Further, under setting [1], the AC50 was 1.46 µM [falling, partial curve].

Take `CC(=O)N1N=C(c2cccs2)CC1c1ccc(C)o1` (centres undefined): the cell number change was -47.4%. Also, the AC50 under setting [2] is 25.9 µM [falling, partial curve, poor fit].

As to `Cc1ccc(C(=O)CCC(=O)Nc2ncccc2C)cc1`, the cell number change came to 48.1%. The AC50 under setting [2] was 8.2 µM [rising, partial curve, poor fit]. Besides, the AC50 under setting [1] was 11.6 µM [rising, partial curve, poor fit].

For `Cc1ccccc1N(C(=O)c1csnn1)C(C(=O)NC1CCCC1)c1ccncc1` (centres undefined), the cell number change is 64.1%. Moreover, under setting [2], the AC50 was 29.1 µM [rising, single point].

Take `COc1ccc(C(=O)CSc2nnc(CNC(=O)c3ccc(OC)c(OC)c3)n2C)cc1`: the cell number change came out at 14.6%. Under setting [2], the AC50 is 0.0058 µM [rising, full curve, poor fit].

`CC(Sc1ccc([N+](=O)[O-])cn1)C(=O)Nc1nccs1` (centres undefined): the cell number change turned out to be 2.56%. Further, under setting [1], the AC50 was 29.1 µM [falling, single point].

Take `CCn1c(CC(=O)Nc2ccccc2)nnc1SCC(=O)NC1=NCCS1`: the cell number change turned out to be 5.98%.

In the case of `COc1cc2nc(-c3ccccc3C)oc(=O)c2cc1OC`, the cell number change is -13.6%. In addition, the AC50 under setting [1] is 16.4 µM [falling, single point].

`CCn1nnnc1SCC(=O)c1ccc(NC(C)=O)cc1`: the AC50 was 0.651 µM [rising, single point] under setting [2] and 5.8 µM [falling, single point] under setting [1].

Turning to `O=c1oc2ccc3ccccc3c2c2c1SC(C(F)(F)F)C2` (centres undefined), the AC50 reads like this: under setting [2], 0.82 µM [rising, partial curve]; under setting [1], 0.731 µM [rising, single point].

Take `CSc1ccc(S(=O)(=O)NCC(=O)OCC(=O)NCC2CCCO2)cc1[N+](=O)[O-]` (centres undefined): the cell number change was -8.1%. In addition, the AC50 under setting [1] was 1.64 µM [falling, full curve, poor fit].

Regarding `C=CCNc1ncnc2c1[nH]c1ccc(Cl)cc12`, the cell number change was -3.31%. In addition, the AC50 under setting [2] is 0.092 µM [rising, full curve, poor fit].

In the case of `COc1ccc(F)cc1S(=O)(=O)N1CCCN(S(=O)(=O)c2cc(F)ccc2OC)CC1`, the cell number change is -1.85%. In addition, the AC50 under setting [1] is 6.51 µM [rising, single point].

As for `CC(=O)Nc1ccc(C(=O)N2CCN(S(=O)(=O)c3ccc4c(c3)OCCCO4)CC2)cc1`, the cell number change is -2.33%. Further, the AC50 under setting [1] is 10.3 µM [rising, partial curve, poor fit].

With `O=C(OCC(=O)N1c2ccccc2Sc2ccccc21)c1cccnc1`, the cell number change was 112%. Under setting [2], the AC50 is 23.1 µM [rising, single point].

`O=C(C1CCN(c2nnc(-n3cccc3)s2)CC1)N1CCN(Cc2ccc3c(c2)OCO3)CC1`: the cell number change is -0.711%. The AC50 under setting [1] is 18.4 µM [falling, single point].

Take `CC(C(=O)NCC(=O)Nc1ccc(F)c(F)c1F)N1CCN(c2ccc(O)cc2)CC1` (centres undefined): the cell number change came out at 14.3%. In addition, the AC50 under setting [1] was 32.6 µM [falling, single point].

With `Cc1ccc2c(c1)N(CC(=O)N(Cc1ccc3c(c1)OCO3)CC1CCCO1)C(=O)C(C)O2` (centres undefined), the cell number change is -18.3%. In addition, the AC50 under setting [1] was 4.11 µM [rising, full curve, poor fit].

As for `CCN=C(NCC)SC1CC(=O)N(c2cccc(OC)c2)C1=O` (centres undefined), the cell number change was found to be 7.41%. Besides, under setting [1], the AC50 was 6.51 µM [falling, single point].

For `Cc1ccccc1NC(=O)COC(=O)CNC(=O)c1sc2ccccc2c1Cl`, the cell number change was determined as 0.916%. Besides, the AC50 under setting [1] is 29.1 µM [rising, single point].

For the molecule `O=C(c1ccc(N2CCCC2)c([N+](=O)[O-])c1)N1CCN(S(=O)(=O)c2ccccc2)CC1`, the cell number change was -17.7%.

Turning to `CC1=CC(C)(C)n2c(O)c(C3=NC(=S)NC3=O)c3cc(OC(=O)c4cccc5ccccc45)cc1c32`, the cell number change is -16.9%. Further, under setting [1], the AC50 was 29.1 µM [rising, single point].

With `COc1cc(C(N)=O)cc(Br)c1OCc1ccccc1`, the cell number change was -9.88%.

As for `Clc1ccc(C2=Nn3c(nnc3-c3n[nH]c4c3CCC4)SC2)cc1`, the cell number change stood at 6.45%. Moreover, the AC50 under setting [1] is 29.1 µM [falling, partial curve, poor fit].

`Cc1nonc1-c1csc(N)n1`: the cell number change was -24.3%. In addition, under setting [2], the AC50 was 2.06 µM [rising, partial curve, poor fit].

As to `Cc1ccc[n+](C(C)C(=O)c2ccc(Cl)cc2)c1` (centres undefined), the cell number change is -7.46%. The AC50 under setting [1] is 3.26 µM [rising, full curve].

Consider `CCN(CC)C(=N)/C(C#N)=N/Nc1ccccc1`, for which the cell number change is -15.7%. Also, the AC50 under setting [1] was 0.0058 µM [falling, full curve, poor fit].
